For 46 substances, binding results are on record in PMC2860244.

Amino acid sequences for entries named in this document (tags omitted).
UniProt Q60596: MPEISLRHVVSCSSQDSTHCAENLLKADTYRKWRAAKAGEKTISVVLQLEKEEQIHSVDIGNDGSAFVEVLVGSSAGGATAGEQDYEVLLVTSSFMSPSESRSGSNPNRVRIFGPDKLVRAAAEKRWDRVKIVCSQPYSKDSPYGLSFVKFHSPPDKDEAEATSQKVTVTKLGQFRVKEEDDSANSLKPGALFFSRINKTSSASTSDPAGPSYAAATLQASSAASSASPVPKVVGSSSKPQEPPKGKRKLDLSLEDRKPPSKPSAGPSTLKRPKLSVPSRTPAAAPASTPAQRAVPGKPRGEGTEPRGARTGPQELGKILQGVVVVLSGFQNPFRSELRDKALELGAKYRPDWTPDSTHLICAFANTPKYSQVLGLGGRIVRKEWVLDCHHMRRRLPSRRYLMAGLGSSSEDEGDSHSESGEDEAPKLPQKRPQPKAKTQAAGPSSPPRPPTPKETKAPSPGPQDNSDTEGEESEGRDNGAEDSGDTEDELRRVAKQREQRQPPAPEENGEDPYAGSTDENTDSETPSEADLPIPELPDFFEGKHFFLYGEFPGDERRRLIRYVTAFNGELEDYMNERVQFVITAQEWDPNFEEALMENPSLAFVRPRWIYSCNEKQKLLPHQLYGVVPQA
UniProt O35344: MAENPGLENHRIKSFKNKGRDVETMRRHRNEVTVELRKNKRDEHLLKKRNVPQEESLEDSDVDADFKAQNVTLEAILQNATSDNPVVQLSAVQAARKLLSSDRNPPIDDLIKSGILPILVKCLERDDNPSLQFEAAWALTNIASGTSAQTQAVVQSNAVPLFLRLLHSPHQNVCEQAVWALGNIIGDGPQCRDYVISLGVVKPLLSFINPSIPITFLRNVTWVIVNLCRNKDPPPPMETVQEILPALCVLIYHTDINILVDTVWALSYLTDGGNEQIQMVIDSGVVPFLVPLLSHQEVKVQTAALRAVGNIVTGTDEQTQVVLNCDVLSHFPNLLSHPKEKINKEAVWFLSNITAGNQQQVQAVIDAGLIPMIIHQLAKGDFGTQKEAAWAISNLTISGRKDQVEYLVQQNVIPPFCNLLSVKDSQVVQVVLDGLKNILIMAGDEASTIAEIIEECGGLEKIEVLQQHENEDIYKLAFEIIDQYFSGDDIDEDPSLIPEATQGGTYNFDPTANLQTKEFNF
UniProt P54276: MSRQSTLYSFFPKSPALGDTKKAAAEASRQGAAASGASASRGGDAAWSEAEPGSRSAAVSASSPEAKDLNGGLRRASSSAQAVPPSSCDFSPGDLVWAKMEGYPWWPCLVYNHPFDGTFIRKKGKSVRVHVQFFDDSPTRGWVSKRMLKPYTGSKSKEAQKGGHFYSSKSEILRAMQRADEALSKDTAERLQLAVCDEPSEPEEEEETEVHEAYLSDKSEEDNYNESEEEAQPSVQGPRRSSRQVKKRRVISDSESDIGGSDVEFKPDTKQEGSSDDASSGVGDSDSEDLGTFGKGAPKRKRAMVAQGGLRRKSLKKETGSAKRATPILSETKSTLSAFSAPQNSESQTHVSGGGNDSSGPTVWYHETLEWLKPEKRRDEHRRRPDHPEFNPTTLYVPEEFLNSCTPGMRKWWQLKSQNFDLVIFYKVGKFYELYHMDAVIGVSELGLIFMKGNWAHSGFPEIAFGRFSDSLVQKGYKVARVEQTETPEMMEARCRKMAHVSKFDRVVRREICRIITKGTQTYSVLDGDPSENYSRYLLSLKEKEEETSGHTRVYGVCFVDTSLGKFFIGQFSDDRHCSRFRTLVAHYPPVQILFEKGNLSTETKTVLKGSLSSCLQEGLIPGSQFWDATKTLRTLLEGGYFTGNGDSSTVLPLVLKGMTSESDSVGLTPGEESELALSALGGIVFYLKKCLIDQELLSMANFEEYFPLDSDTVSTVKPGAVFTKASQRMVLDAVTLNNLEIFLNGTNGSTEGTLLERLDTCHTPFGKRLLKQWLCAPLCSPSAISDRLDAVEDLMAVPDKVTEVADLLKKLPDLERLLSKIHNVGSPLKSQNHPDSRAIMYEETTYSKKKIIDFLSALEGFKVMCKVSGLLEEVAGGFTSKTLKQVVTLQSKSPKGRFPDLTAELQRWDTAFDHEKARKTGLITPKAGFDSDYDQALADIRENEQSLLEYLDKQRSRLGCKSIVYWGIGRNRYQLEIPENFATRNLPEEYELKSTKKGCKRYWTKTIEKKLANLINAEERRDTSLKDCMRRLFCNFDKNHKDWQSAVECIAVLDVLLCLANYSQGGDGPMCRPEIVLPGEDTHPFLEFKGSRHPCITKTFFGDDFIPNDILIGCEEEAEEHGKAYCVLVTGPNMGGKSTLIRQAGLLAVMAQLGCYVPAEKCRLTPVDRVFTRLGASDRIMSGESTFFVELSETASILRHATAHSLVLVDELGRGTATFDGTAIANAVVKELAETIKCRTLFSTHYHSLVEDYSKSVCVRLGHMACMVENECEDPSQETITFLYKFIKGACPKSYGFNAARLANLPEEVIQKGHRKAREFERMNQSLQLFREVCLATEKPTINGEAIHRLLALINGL
UniProt Q9CXY6: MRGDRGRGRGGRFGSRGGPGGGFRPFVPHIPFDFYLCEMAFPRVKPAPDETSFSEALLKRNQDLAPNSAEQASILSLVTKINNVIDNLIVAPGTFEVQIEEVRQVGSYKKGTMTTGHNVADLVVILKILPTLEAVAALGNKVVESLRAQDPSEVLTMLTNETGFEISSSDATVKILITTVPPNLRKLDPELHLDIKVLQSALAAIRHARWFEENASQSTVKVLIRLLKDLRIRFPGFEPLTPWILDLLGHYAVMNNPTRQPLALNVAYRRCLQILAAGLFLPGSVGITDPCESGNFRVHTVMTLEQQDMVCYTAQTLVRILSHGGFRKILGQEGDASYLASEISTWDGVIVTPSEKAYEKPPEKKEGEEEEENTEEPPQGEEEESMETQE
UniProt Q76MZ3: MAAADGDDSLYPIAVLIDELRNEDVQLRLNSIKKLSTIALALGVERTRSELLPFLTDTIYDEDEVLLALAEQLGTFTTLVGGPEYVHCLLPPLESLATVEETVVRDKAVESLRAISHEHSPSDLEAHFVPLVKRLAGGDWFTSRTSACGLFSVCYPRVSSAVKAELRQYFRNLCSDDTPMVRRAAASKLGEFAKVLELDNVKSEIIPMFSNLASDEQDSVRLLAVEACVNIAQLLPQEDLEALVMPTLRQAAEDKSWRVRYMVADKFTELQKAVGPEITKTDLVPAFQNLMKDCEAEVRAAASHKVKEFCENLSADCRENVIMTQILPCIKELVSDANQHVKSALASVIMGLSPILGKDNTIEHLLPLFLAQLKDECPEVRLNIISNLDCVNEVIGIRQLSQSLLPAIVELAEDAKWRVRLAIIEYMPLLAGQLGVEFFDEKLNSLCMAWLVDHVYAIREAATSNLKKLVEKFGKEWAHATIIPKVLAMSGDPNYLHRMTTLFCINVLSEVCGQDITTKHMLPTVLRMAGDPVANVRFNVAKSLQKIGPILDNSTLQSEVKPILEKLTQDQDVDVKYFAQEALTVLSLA
UniProt A2A8L1: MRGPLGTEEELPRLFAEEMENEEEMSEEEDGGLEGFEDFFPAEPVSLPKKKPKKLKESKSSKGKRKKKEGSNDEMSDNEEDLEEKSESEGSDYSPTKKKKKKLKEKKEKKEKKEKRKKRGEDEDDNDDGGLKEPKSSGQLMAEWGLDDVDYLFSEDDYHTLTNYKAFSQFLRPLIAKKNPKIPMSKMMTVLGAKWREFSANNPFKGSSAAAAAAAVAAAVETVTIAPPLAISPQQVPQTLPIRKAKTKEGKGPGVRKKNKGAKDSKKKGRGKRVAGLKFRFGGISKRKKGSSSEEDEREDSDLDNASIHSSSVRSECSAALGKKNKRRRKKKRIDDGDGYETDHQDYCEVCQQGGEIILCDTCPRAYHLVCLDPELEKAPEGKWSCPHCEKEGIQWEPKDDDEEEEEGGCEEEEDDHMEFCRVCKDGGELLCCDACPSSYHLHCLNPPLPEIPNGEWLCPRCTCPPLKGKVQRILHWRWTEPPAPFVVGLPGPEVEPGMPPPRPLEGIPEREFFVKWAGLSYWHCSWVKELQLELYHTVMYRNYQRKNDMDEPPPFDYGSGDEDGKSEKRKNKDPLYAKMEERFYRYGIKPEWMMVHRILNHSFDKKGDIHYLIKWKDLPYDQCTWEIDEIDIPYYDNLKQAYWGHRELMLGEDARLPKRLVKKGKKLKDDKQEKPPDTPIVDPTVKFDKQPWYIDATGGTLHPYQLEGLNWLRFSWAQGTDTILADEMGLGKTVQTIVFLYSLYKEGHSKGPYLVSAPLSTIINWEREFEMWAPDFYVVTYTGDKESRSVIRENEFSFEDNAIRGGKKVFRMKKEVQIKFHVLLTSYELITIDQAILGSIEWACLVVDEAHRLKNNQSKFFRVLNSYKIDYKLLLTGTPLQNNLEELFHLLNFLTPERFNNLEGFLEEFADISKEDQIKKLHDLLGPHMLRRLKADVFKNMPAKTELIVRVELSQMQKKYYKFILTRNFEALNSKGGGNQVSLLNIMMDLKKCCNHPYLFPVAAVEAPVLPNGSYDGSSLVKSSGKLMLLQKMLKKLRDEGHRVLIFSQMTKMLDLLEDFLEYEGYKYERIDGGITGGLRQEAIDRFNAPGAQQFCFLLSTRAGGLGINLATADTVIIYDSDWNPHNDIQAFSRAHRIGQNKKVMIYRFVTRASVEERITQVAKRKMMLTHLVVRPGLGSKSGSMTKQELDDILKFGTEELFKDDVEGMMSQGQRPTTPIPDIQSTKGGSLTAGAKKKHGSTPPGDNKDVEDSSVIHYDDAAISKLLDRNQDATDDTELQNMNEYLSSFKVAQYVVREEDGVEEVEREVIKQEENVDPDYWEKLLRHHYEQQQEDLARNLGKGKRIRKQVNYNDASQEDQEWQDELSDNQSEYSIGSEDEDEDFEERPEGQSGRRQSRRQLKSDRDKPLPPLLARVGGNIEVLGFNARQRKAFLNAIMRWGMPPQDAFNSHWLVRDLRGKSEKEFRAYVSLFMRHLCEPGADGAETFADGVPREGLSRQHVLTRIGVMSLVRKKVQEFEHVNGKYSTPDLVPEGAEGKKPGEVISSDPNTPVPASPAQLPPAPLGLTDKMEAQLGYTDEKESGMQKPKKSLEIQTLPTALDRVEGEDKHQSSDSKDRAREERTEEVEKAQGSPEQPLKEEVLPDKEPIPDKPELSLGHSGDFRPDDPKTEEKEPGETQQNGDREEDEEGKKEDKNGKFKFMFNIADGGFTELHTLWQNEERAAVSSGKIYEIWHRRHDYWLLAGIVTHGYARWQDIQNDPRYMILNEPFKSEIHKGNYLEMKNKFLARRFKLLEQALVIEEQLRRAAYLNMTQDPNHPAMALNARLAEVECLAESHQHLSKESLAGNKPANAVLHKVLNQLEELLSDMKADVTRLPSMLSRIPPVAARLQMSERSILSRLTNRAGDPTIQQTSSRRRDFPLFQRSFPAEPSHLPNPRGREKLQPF
UniProt Q08874: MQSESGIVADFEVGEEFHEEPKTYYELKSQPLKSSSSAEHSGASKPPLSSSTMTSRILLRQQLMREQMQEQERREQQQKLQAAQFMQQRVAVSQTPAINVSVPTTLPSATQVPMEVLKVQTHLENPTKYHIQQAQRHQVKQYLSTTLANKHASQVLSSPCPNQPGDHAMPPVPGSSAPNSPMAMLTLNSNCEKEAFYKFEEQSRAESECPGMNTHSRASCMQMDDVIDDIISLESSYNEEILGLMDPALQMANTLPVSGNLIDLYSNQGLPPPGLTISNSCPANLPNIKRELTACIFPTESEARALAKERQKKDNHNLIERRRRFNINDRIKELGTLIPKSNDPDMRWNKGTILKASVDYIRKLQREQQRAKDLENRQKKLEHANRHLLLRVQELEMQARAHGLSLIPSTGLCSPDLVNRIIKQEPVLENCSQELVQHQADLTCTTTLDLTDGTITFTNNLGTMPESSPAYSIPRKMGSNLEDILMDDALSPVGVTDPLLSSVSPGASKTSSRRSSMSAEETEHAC
UniProt O35685: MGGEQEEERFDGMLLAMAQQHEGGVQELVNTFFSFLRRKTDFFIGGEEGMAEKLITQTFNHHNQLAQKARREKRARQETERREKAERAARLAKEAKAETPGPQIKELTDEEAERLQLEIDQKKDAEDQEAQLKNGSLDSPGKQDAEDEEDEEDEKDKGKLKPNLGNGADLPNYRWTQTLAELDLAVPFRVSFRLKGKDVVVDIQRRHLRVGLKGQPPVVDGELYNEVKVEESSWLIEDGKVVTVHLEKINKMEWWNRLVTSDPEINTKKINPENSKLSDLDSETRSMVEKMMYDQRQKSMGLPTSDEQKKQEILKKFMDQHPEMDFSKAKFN
UniProt Q9CQ71: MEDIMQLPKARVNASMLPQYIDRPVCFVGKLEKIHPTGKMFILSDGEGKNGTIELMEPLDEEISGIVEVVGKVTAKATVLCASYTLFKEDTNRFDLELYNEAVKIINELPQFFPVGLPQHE

No constants are given. Whether binding was seen depends on the method and setting. Binding seen in cells or lysates may run through a third protein. A yes stands for co-enrichment or nearness to the bait. Other partners may have been found. For some assays here: No binding means not detected with the bait.

The target of one assay is Oct4-FTAP fusion protein (mouse) (UniProt P20263). Put plainly: affinity purification with mass spectrometry; tandem affinity purification: TEV eluate of the anti-FLAG step incubated with calmodulin resin 60 min, 4°C; elution with EGTA; LC-MS/MS.
As to “transcription factor EB (from UniProt Q9R210 1-475)”, the binding entry is “binds”.

The target is the same in another assay. In words: affinity purification with mass spectrometry; one-step purification on anti-FLAG M2 Dynal beads from whole-cell extracts of Oct4-FTAP ESCs against unmodified control cells (AB2.2); 150 mM NaCl, 0.1% NP-40, 90 min, 4°C; elution with AcTEV protease; three independent purifications; LC-MS/MS.
As for “AT motif binding factor 1 (from UniProt Q61329 1-3726)”, the binding entry is “binds”.

Consider “ATP-dependent DNA helicase 2 subunit 1 (from UniProt P23475 1-608)”, for which the binding result is listed as “binds”.

Take “ATP-dependent DNA helicase 2 subunit 2 (from UniProt P27641 1-732)”: the binding entry is recorded as “binds”.

As for “Angiomotin-like protein 2 (from UniProt Q8K371 1-772)”, the binding result was “binds”.

For the substance “C-terminal-binding protein 1 (from UniProt O88712 1-441)”, the binding result is “binds”.

Turning to “C-terminal-binding protein 2 (from UniProt P56546-2 1-988)”, the binding entry is “binds”.

With “DNA repair protein XRCC1 (from UniProt Q60596 1-631)”, the binding entry is “binds”.

As for “DNA topoisomerase 2-alpha (from UniProt Q01320 1-1528)”, the binding result is on record as “binds”.

For the substance “DNA-binding protein RFX2 (from UniProt P48379-2)”, the binding entry is recorded as “binds”.

For “DnaJ homolog subfamily A member 1 (from UniProt P63037 1-397)”, the binding result is “binds”.

As for EWS (from UniProt Q61545 1-655), the binding result is listed as “no binding”.

“FACT complex subunit SSRP1 (from UniProt Q08943-2 1-713)”: the binding entry is given as “binds”.

For the substance Hnrnpu (from UniProt Q8VEK3 1-800), the binding entry is given as “binds”.

Regarding “Importin subunit alpha-3 (from UniProt O35344 1-521)”, the binding result is “binds”.

Matrin-3 (from UniProt Q8K310 1-846): the binding result was “binds”.

In the case of “MutS homolog 6 (from UniProt P54276 1-1358)”, the binding entry was “binds”.

Regarding NF45 (from UniProt Q9CXY6 1-390), the binding entry is given as “no binding”.

With Parp1 (from UniProt P11103 1-1013), the binding result was “binds”.

Turning to “Protein Jade-1 (from UniProt Q6ZPI0 1-834)”, the binding entry is reported as “binds”.

Regarding “REST corepressor 2 (from UniProt Q8C796 1-523)”, the binding entry is given as “binds”.

Turning to “Requiem/Dpf2 (from UniProt Q61103 1-391)”, the binding result is “binds”.

As for “SWI/SNF complex subunit SMARCC1 (from UniProt P97496 1-1104)”, the binding result was “binds”.

With “SWI/SNF related, matrix associated, actin dependent regulator of chromatin, subfamily a, member 4, isoform CRA_b (from UniProt Q3TKT4 1-1613)”, the binding result is given as “binds”.

As to “SWI/SNF-related matrix-associated actin-dependent regulator of chromatin subfamily A member 5 (from UniProt Q91ZW3 1-1051)”, the binding entry was “binds”.

In the case of “Sal-like protein 4 (from UniProt Q8BX22 1-1067)”, the binding result was “binds”.

Turning to “Serine/threonine-protein phosphatase 2A 65 kDa regulatory subunit A alpha isoform (from UniProt Q76MZ3 1-589)”, the binding entry is “binds”.

Consider Wwp2 (from UniProt Q9DBH0 1-870), for which the binding entry was “no binding”.

With Zfp206 (from UniProt Q3URR7 1-782), the binding result is given as “no binding”.

On to “bromodomain and WD repeat-containing protein 1 (from UniProt Q921C3 1-2304)”, for which the binding result was “binds”.

Consider “cAMP response element-binding protein (from UniProt Q01147-1)”, for which the binding result is reported as “binds”.

In the case of “carbamoyl-phosphate synthetase 2, aspartate transcarbamylase, and dihydroorotase (from UniProt B2RQC6 1-2225)”, the binding entry was “binds”.

On to “chromodomain helicase DNA binding protein 5 isoform1 (from UniProt A2A8L1 1-1946)”, for which the binding result is “binds”.

For “chromodomain-helicase-DNA-binding protein 1 (from UniProt P40201 1-1711)”, the binding result is “binds”.

On to “histone acetyltransferase MYST2 (from UniProt Q5SVQ0-2 1-583)”, for which the binding entry is reported as “binds”.

“histone chaperone ASF1A (from UniProt Q9CQE6 1-204)”: the binding result is reported as “binds”.

In the case of “microphthalmia-associated transcription factor (from UniProt Q08874 1-526)”, the binding result is recorded as “binds”.

In the case of “nuclear factor related to kappa-B-binding protein (from UniProt Q6PIJ4 1-1296)”, the binding entry is recorded as “binds”.

As to “nuclear migration protein nudC (from UniProt O35685 1-332)”, the binding entry is “binds”.

In the case of “protein HIRA (from UniProt Q61666 1-1015)”, the binding entry is listed as “binds”.

As for “putative DNA helicase INO80 complex homolog 1 (from UniProt Q6ZPV2 1-1559)”, the binding result was “binds”.

Consider “replication protein A 14 kDa subunit (from UniProt Q9CQ71 1-121)”, for which the binding result is reported as “binds”.

As for “replication protein A 70 kDa DNA-binding subunit (from UniProt Q8VEE4 1-623)”, the binding entry is recorded as “binds”.

Take “transcription factor EB (from UniProt Q9R210 1-475)”: the binding result was “binds”.

As for “uncharacterized protein KIAA2030 (from UniProt Q80WC1-4 1-1316)”, the binding entry is “binds”.

In the case of “zinc finger protein 297B isoform a (from UniProt Q9DAI4)”, the binding entry was “binds”.

Consider “zinc finger protein ZIC 2 (from UniProt Q62520 1-530)”, for which the binding entry is recorded as “binds”.
